Data from the supplement of paper PMC12764529.
± gives the half width of the 95% confidence interval. The two proteases of the assay disagree for many of these sequences.

Experiments:
[1] = folding stability dG unfold (combined trypsin and chymotrypsin); higher = more stable
Outline: (§1)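 Digests were run with trypsin and chymotrypsin at 11 concentrations in threefold dilutions, plus a no-protease condition, on designed mini-proteins in a PA-tagged cDNA display construct. The mini-proteins were under 80 residues, had no cysteine, and were kept only when AlphaFold2 dimer inter-PAE was above 15. After sequencing, Bayesian fitting of the counts gave K50, from which unfolding free energy was derived against a sequence-predicted unfolded-state K50 and a shared folded-state K50, per protease or combined.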

[2] = folding stability dG unfold from trypsin proteolysis; higher = more stable
Outline: as §1

[3] = folding stability dG unfold from chymotrypsin proteolysis; higher = more stable
Outline: as §1

Sequence	folding stability dG unfold [1]	folding stability dG unfold [2]	folding stability dG unfold [3]
SAGGSAGGSAGGSMVTVPLTSPEEAEALVAAGVPITLPDGSPVPVTEVEFLPDGSLRIGVSAGGSAGGSAGG [r11_48_JUSTAS]	0.834 ± 0.056 kcal/mol	-1.07 ± 0.37 kcal/mol	1.33 ± 0.057 kcal/mol
SAGGSAGGSAKTLTITLVFDSPEDALAAARALAEALGVEIKVEVRRRADGRLVVTAEIELPSAGGSAGGSAG [r3_273_TrROS_Hall]	2.99 ± 0.048 kcal/mol	0.923 ± 0.023 kcal/mol	3.35 ± 0.045 kcal/mol
SAGYGWVYRSPNGKTMPADDMDEEQMEDMEIVPVEPIPPISINVELEWEFDPNGSLEYKFKIEISIGFSAGG [r19_232_TrROS]	4.92 ± 0.14 kcal/mol	2.74 ± 0.096 kcal/mol	5.22 ± 0.093 kcal/mol
SAGGSAGGSKVTLTLPENAKVEIVYDEETGKLYIYIEVDGELYKFTFDKKTNKVTVERFKLKDSAGGSAGGS [r12_368_TrROS_Hall]	4.55 ± 0.13 kcal/mol	2.81 ± 0.14 kcal/mol	4.82 ± 0.055 kcal/mol
SAGGSAGGPLELTLVGISPELAEKLAKLLTELGIPVKIEVVPAPPVPPISPEELEKNPELAKKRSAGGSAGG [r6_804_TrMRF]	1.16 ± 0.14 kcal/mol	-0.552 ± 0.28 kcal/mol	1.72 ± 0.046 kcal/mol
SAGGSAGGSAGGRIRIRVETRTDANGNLTTTVQLEEEEPPPPPEPQTTTTTTTQTPPQTSAGGSAGGSAGGS [r10_496_TrROS_Hall]	1.98 ± 0.56 kcal/mol	3.01 ± 0.22 kcal/mol	0.949 ± 0.31 kcal/mol
SAGGSAGGSAGGSATIVIFFKDYVIVIKIKWEFDPDNGKYKYEIEIEIFPMPPGEPAPISAGGSAGGSAGGS [r4_215_TrROS]	3.9 ± 0.53 kcal/mol	2.09 ± 0.2 kcal/mol	4.14 ± 0.44 kcal/mol
SAGGNWEIEDRKEETIPFNIKFEVYVFKHDDHWFIFIRIEIVIPPIPPPPPPPPPPISPEDNKKNKNKSAGG [r13_760_TrROS]	3.61 ± 0.17 kcal/mol	-0.349 ± 0.56 kcal/mol	3.88 ± 0.06 kcal/mol
SAGNFEITYNKETNTLTIKYNGKTFTFTLTVTVTVTTTVTLENGETKTVTKTVTKTITLTVEELKKLLKSAG [r5_234_TrROS_Hall]	4.62 ± 0.42 kcal/mol	2.33 ± 0.21 kcal/mol	5.19 ± 0.17 kcal/mol
SAMKIEIEEKDGEKVIKIEMKFKTKDGKEVTMTFEFKLENGEKIEIKIEEGMSLEEILEKLKKALEKAKSAG [r14_618_TrROS_Hall]	5.33 ± 0.43 kcal/mol	2.37 ± 0.096 kcal/mol	5.37 ± 0.24 kcal/mol
SAGMNVVEISEDPKGYLHVVVKVPPSVSIEEVKEALEKELGLKITEVEVEPTPDGIVIKFTLEIPKEKKSAG [r5_774_JUSTAS]	3.65 ± 0.32 kcal/mol	0.415 ± 0.11 kcal/mol	4.04 ± 0.13 kcal/mol
SAGGSAGGSAGGKIKVKPGEKIEITLKNGYKIEIVKNKNGEKYAYIYNKNGKLIKKFKISAGGSAGGSAGGS [r10_150_TrROS_Hall]	3.71 ± 0.23 kcal/mol	1.24 ± 0.071 kcal/mol	4.3 ± 0.22 kcal/mol
SAMTVTVVLEDLENLTAEELEEALREAGIKEVKIVKIERVEDKVVITVEVEPGMTVEEVEEALRKVLEESAG [r14_657_TrROS_Hall]	3.12 ± 0.14 kcal/mol	3.81 ± 0.21 kcal/mol	0.987 ± 0.1 kcal/mol
SARIVLPDGREVDFEIVRVERFPEGVRILALYRHDDTYRLVEFEIPPFGEIRLVSEVEVPLPPGFPGLRSAG [r14_13_TrMRF]	3.75 ± 0.067 kcal/mol	1.471 ± 0.011 kcal/mol	4.243 ± 0.038 kcal/mol
SAGGSMKLPEGWKVVEIKIEKNEDGTETITVLVKDEETGEYYKFKYKIKDGKIELVEVEKIPKEELSAGGSA [r2_371_TrROS_Hall]	5.77 ± 0.58 kcal/mol	3.85 ± 0.43 kcal/mol	6.02 ± 0.36 kcal/mol
SAGDVIKIELWIPPGEEMTANEMIDHIKQQLAQRPGFKITEIPDIKIEPYPDNWYRVEIYVKIELPDPSAGG [r19_396_TrROS]	4.59 ± 0.29 kcal/mol	2.46 ± 0.2 kcal/mol	4.65 ± 0.14 kcal/mol
SAGGSAEAEALAAEARAAGWEAEVRVERLPGPVTRITVTVRAPGGRTVTLELERRPEGWRLLAEEVEASAGG [r13_203_JUSTAS]	3.3 ± 0.14 kcal/mol	1.54 ± 0.05 kcal/mol	3.82 ± 0.089 kcal/mol
SAGGMKIKVKIKNKETNKVYEAEIVEVKEVGGKTYLFIKLPNGEIKEIPLDEIEEVEVDEETKEITVKSAGG [r13_211_TrROS_Hall]	3.77 ± 0.11 kcal/mol	1.6 ± 0.077 kcal/mol	4.26 ± 0.073 kcal/mol
SAKEIKEPKEVYKITIKVKNPNGEEKEIVITLSKEELENEEVLKKLVEELKEKGYEVEVKIEPVKVEEPSAG [r14_60_TrROS_Hall]	2.74 ± 0.1 kcal/mol	0.938 ± 0.1 kcal/mol	3.25 ± 0.051 kcal/mol
SAGGSAGGSAGKKKKKKKKKKIKKVTVTMKFVDKETNEVVEAEITVNKDGTITVKVKKYPSAGGSAGGSAGG [r11_463_TrROS_Hall]	1.29 ± 0.43 kcal/mol	2.09 ± 0.2 kcal/mol	-0.214 ± 0.43 kcal/mol
SKKYEPIATLTLTLTLKDGNKVTIKIEVYRDENGNYTVTITLPNGKKLTFTFPVGEKITLDQLKELLKKLSA [r9_616_TrROS_Hall]	3.95 ± 0.23 kcal/mol	1.98 ± 0.1 kcal/mol	4.32 ± 0.06 kcal/mol

Reprinted at random: 2 entries already listed.
Sequence	folding stability dG unfold [1]	folding stability dG unfold [2]	folding stability dG unfold [3]
SAKEIKEPKEVYKITIKVKNPNGEEKEIVITLSKEELENEEVLKKLVEELKEKGYEVEVKIEPVKVEEPSAG [r14_60_TrROS_Hall]	2.74 ± 0.1 kcal/mol	0.938 ± 0.1 kcal/mol	3.25 ± 0.051 kcal/mol
SAGGSAEAEALAAEARAAGWEAEVRVERLPGPVTRITVTVRAPGGRTVTLELERRPEGWRLLAEEVEASAGG [r13_203_JUSTAS]	3.3 ± 0.14 kcal/mol	1.54 ± 0.05 kcal/mol	3.82 ± 0.089 kcal/mol

Following part

Sequence	folding stability dG unfold [1]	folding stability dG unfold [2]	folding stability dG unfold [3]
SAGGSAGGSAGLKPGDPVIAISIDIEPEIKVEPDGNKWKLKLEWEIKIDIHRFRVPPGAPSAGGSAGGSAGG [r17_186_TrROS]	4.6 ± 0.69 kcal/mol	2.68 ± 0.37 kcal/mol	5.24 ± 0.27 kcal/mol
SAGGSAKKPKPPKVRIKVEIDGKTYEFEIPAEAIEKIEYDEENKEVTIYLKENGKTFKAKIVEVEPSAGGSA [r15_495_TrROS_Hall]	3.08 ± 0.086 kcal/mol	1.44 ± 0.027 kcal/mol	3.5 ± 0.036 kcal/mol
SAGGSAGGSAEKEFEVEIVEVKYNKETNEVEVLIKNKKTGKYYKITFNKNGELKIEEVELKSAGGSAGGSAG [r3_294_TrROS_Hall]	5.3 ± 0.41 kcal/mol	2.95 ± 0.2 kcal/mol	5.35 ± 0.22 kcal/mol
SAGGSAKIKLPSKEEVEKLVKELEKKGYKVVSVEVKYDKETKEVYVKIEIYHKKTKKKITLEIKVKSAGGSA [r15_123_TrROS_Hall]	4.58 ± 0.39 kcal/mol	3.07 ± 0.13 kcal/mol	5.24 ± 0.24 kcal/mol
SAGKTIWIPPGMPREQAEDIARELAQENGGEDVEVERHPDNPNMVKVEVKNPNNGKDIEIHIMPPEQLESAG [r5_912_TrROS]	0.556 ± 0.66 kcal/mol	3.28 ± 0.36 kcal/mol	-0.000141 ± 0.2 kcal/mol
SMEKIKKEIEKAAKELGIKVKSIKIEENPETKTVNVTVEIENGKTINFTFKKKKNGTYEMDINEIKKQAKSA [r9_85_TrMRF]	> 6 kcal/mol	2.42 ± 0.095 kcal/mol	6.21 ± 0.24 kcal/mol
SAGGSSMLYTIEVELEPVFPPGVRRRFRKTLTLETTPEELAALLAAIRARPPDVRLLRVVVREFPESAGGSA [r2_75_JUSTAS]	2.22 ± 0.14 kcal/mol	0.615 ± 0.16 kcal/mol	2.72 ± 0.11 kcal/mol
SAGGSAGGSAGGKKKKKPKKIKKLTLTVRITVTLENGETVELTARLTLDDDGNLRLEIESAGGSAGGSAGGS [r10_390_TrROS_Hall]	4.02 ± 0.43 kcal/mol	2.48 ± 0.096 kcal/mol	4.64 ± 0.27 kcal/mol
SAGGSMYKIKIENENGEIFEVEVKITEVKEVNGKLYLKIEVTIDGKTYTLTIPLEKIKKIEIYEEPSAGGSA [r2_319_TrROS_Hall]	4.42 ± 0.14 kcal/mol	2.73 ± 0.076 kcal/mol	4.77 ± 0.1 kcal/mol
SAEITLTVNGKKVRFTRNEDGYLTIEVYNADTGELVETFTVPLDEITSVTVTGEDGTITITVSDEALKKSAG [r14_755_TrROS_Hall]	3.59 ± 0.16 kcal/mol	1.25 ± 0.096 kcal/mol	3.76 ± 0.15 kcal/mol
SAGGSAGGSADDPNNPDQQQKVVPIEIKIEVEIVWIPNGWWIYKITIEFGGITIEIYFAGPWSAGGSAGGSA [r18_335_TrROS]	4.73 ± 0.52 kcal/mol	3.05 ± 0.25 kcal/mol	5.12 ± 0.11 kcal/mol
VDLNVTAEQIGDKEYRLTVTFPESGKSFTFSVPGSLEEAKEAALKRIKEEYPELDVTSIDFTPVPAPPDLVS [r1_80_JUSTAS]	5.37 ± 0.14 kcal/mol	3.4 ± 0.1 kcal/mol	5.44 ± 0.091 kcal/mol
SAGGTLKDLGITIEVTSVERYPDNPGQWVRYDYKVKIPDGWKIVIDIWIPPDGSIQMMIEIIPPGEPSAGGS [r8_216_TrROS]	4.62 ± 0.43 kcal/mol	2.59 ± 0.26 kcal/mol	4.96 ± 0.17 kcal/mol
SAGGWFTFIIPFPDYLFIFTIEWRWHWDPDTGMLNMDLTISIQIIPLPPPPPPPKPEKDPDGEPKYKSAGGS [r8_46_TrROS]	4.98 ± 0.49 kcal/mol	2.71 ± 0.35 kcal/mol	5.26 ± 0.21 kcal/mol
SAGGSAGGSMSTLNIKLHPPPTVSFEELKEKLLEEYPNATVTFSREGETYTLTVTSDDPKLVSSAGGSAGGS [r20_175_JUSTAS]	2.13 ± 0.71 kcal/mol	1.19 ± 0.056 kcal/mol	3.27 ± 0.19 kcal/mol
SMEKTIEIPIPEGYKITVTIYNEEEVKIEIYLPESNPKIKKEGSIEKIAEKIAKELGIDPKKVKVSYKKYSA [r9_401_JUSTAS]	2.84 ± 0.085 kcal/mol	1.13 ± 0.044 kcal/mol	3.41 ± 0.049 kcal/mol
SAGGKEWEKIAEIKLKDGSTITFYRNKNGELVVVVEDKKTKKKIVITVPKNMSLEEVLNKIKELLKKKSAGG [r13_624_TrROS_Hall]	4.95 ± 0.34 kcal/mol	2.18 ± 0.11 kcal/mol	5.21 ± 0.31 kcal/mol
SAGGSAGGSTLEFKVKSKEEIEELKKKYPDVEIYEDPETKEYYVKVKLKPKKPLSPEDIKAKGSAGGSAGGS [r20_191_TrMRF]	2.5 ± 0.073 kcal/mol	0.86 ± 0.073 kcal/mol	2.9 ± 0.033 kcal/mol
SAGGSELTEVRSVELPDAVVRVYRPPDGTYVIEVTFGGKPVVLELPPDTTEEEIEERIEELLKKLRSAGGSA [r2_243_JUSTAS]	5.01 ± 0.099 kcal/mol	2.92 ± 0.074 kcal/mol	5.25 ± 0.064 kcal/mol
SAGGSAGGSAGGPSLEDLANVPPDVRALVVISGRHPDGGPDEPRLVLFDPATGKVYVFGSAGGSAGGSAGGS [r10_394_TrMRF]	1.73 ± 0.084 kcal/mol	-0.342 ± 0.11 kcal/mol	2.3 ± 0.073 kcal/mol
